# According to PubChem BioAssay (EPA / NIEHS):
# Amino acid sequences for entries named in this document (tags omitted). A change or cut given only in a name is not applied to a line headed by its entry.
# UniProt P19793: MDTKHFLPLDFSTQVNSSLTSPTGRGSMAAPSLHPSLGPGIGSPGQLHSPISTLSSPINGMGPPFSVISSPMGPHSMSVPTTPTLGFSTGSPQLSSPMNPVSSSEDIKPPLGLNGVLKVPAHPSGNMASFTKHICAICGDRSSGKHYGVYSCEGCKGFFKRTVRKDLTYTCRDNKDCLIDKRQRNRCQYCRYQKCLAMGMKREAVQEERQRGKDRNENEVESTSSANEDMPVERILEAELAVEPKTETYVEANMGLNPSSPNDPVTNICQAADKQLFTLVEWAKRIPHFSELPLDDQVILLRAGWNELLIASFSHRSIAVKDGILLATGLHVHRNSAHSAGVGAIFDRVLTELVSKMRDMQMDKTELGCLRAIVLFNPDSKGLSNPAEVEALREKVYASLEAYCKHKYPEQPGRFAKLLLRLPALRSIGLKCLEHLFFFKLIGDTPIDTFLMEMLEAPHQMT
# Where “and” joins values, the source holds several entries; their conditions need not be identical. Identical values can stand only once. The shares of active, inactive and inconclusive entries below differ from those in the screen. A potency beside an inconclusive call is a rough fit, not a confirmed value. Calls of active or inactive are those of the source. The calls were made as follows: active = hit-call score of the fitted dose curve at least 0.9, where 1 is the maximum; inconclusive = response in the unintended direction; inactive = score below 0.9.
# Molecular target: Retinoic acid receptor RXR-alpha (Homo sapiens) (UniProt P19793)
# Test: ATG_RXRa_TRANS: Attagene TRANS-FACTORIAL HepG2 Assay for human Retinoid X Receptor alpha (RXRa) (AID 2283012)
# Description: ATG_TRANS is a cell-based, multiplexed-readout assay that uses HepG2, a human liver cell line, with measurements taken at 24 hours after chemical dosing in a 24-well plate.ATG_RXRa_TRANS is one of 30 assay component(s) measured or calculated from the ATG_TRANS assay. It is designed to make measurements of mRNA induction, a form of inducible reporter, as detected with fluorescence intensity signals by Reverse transcription polymerase chain reaction (RT-PCR) and Capillary electrophoresis technology.Data from the assay component ATG_RXRa_TRANS was analyzed into 1 assay endpoint. This assay endpoint, ATG_RXRa_TRANS, was analyzed in the positive analysis fitting direction relative to DMSO as the negative control and baseline of activity. Using a type of inducible reporter, measures of mRNA for gain-of-signal activity can be used to understand the reporter gene at the transcription factor-level as they relate to the gene RXRA. Furthermore, this assay endpoint can be referred to as a primary readout, because this assay has produced multiple assay endpoints where this one serves a reporter gene function. To generalize the intended target to other relatable targets, this assay endpoint is annotated to the nuclear receptor intended target family, where the subfamily is non-steroidal.
# Human liver HepG2 cells are transiently transfected with multiple reporter transcription units (MRTUs) in 6-well plates using FuGene 6 reagent (Roche; 3 ml FuGene/1 mg DNA). The MRTU constructs are regulated by a cis-regulating element (promoter). […] A major difference between the CIS and TRANS system is that in CIS activities of endogenous TFs are measured, whereas the TRANS assay evaluates changes in activities of exogenous, chimeric NR-Gal4 proteins. […] At the end of 24 hour incubation, total RNA was isolated using TriZol reagent (Invitrogen). The isolated RNA is then reverse-transcribed using oligo(dT) primer and Mo-MLV reverse transcriptase (Invitrogen) with DNAse I (Ambion) treatment for 30 min. The one-tenth of the produced cDNA was amplified by PCR using Taq DNA polymerase (Invitrogen) and two reporter sequence-specific primers. The PCR products were fluorescently labeled by primer extension with 6-arboxyfluorescein (6-FAM) 5'-labeled reporter sequence-specific primer (2 min at 95 C, 20 s at 68 C and 10 min at 72 C) and these products were digested with 5U of HpaI (New England Biolabs) for 2h at 37 C. The fragments were purified using Qiaquick PCR columns (Qiagen), analyzed on an ABI 3130xL genetic analyzer (Applied Biosystems) with peak positions identified by using a set of X-rhodamine (ROX)-labeled MapMarker1000 molecular weight standards (BioVentures). The raw capillary electrophoresis data was processed using Attagraph software (Attagene).
Structure (SMILES),outcome,AC50
Cc1cc(=O)oc2cc(O)ccc12,inactive,–
CCCCCCCCCCC1CO1 (stereo not given),inactive,–
CCOC(=O)COC(=O)c1ccccc1C(=O)OCC,–,inconclusive: 1.94 µM
C=C(C)C(=O)OCCOc1ccccc1,–,active: 26.5 µM
CC(=O)c1ccccc1O,inactive,–
CCOc1cccc(-n2cc(C(=O)N3CCN(c4cc(C(=O)O)c5ccccc5c4)CC3)nc2-c2ccc(C)cc2)c1,inactive,–
CN(N=O)C(=O)N[C@@H]1[C@@H](O)[C@H](O)[C@@H](CO)O[C@@H]1O,inactive,–
C[N+](C)(C)CCO,inactive,–
C=CC(C)(CCC=C(C)C)OC(=O)C=Cc1ccccc1 (stereo not given),–,inconclusive: 100 µM
CCN(CC)CCOC(=O)c1ccc(N)cc1,–,inconclusive: 0.0175 µM
NC(=O)C(F)(F)C(F)(F)C(F)(F)C(F)(F)C(F)(F)C(F)(F)C(F)(F)F,–,inconclusive: 264 µM
CCCCCCCCCCCCC[N+](C)(C)Cc1ccccc1,inactive,–
CCCCCCCCCCCC(=O)OC,inactive,–
Cc1ccc(C(=O)O)o1,–,inconclusive: 26.4 µM
CCN(CC)c1ccc(C=O)c(O)c1,–,inconclusive: 100 µM
CC(C)OC(=O)COc1ccc(Cl)cc1Cl,–,inconclusive: 5.4 µM
CN(C)C=O,–,inconclusive: 100 µM and active: 4.99 µM

Structure (SMILES),outcome,AC50
CCCCCCCCCO,inactive,–
CCC1CCCCC1,–,inconclusive: 100 µM
COC(=O)c1cccc(C(=O)OC)c1,–,inconclusive: 16.3 µM
CCCCCCCCCCCC[N+](C)(C)Cc1ccccc1,–,inconclusive: 182 µM
Cc1nc(-c2ccc3c(c2)CCN(CCC2CCC(NC(=O)/C=C/c4ccc(F)cc4)CC2)CC3)no1 (stereo not given),–,inconclusive: 0.00425 µM
COC(=O)/C=C/C(C)=C\C=C\C(C)=C\C=C\C=C(C)\C=C\C=C(C)\C=C\C(=O)O,inactive,–
CC(C)(C)c1cc(O)c(C(C)(C)C)cc1O,–,active: 60.2 µM
CCOC(=O)c1ccc(C2CCC(NC[C@H](O)COc3ccc(O)c(NS(C)(=O)=O)c3)CC2)cc1 (stereo not given in full),–,active: 54.3 µM
NS(=O)(=O)c1cc(C(=O)O)c(NCc2ccco2)cc1Cl,–,inconclusive: 0.0823 µM
CCCCNC(=O)NS(=O)(=O)c1ccc(N)cc1,–,inconclusive: 0.732 µM
COC(=O)C(F)(F)C(F)(F)C(F)(F)F,inactive,–
CC(C)CCCC(C)CCO (stereo not given),inactive,–
CC(=O)N(C)C,–,inconclusive: 2.53 µM
CN1C(=O)c2ccccc2C1=O,–,inconclusive: 100 µM
OCCN(CCO)c1cccc(Cl)c1,inactive,–
NC(N)=NC(=O)c1nc(Cl)c(N)nc1N,inactive,–
